Reference: patent publication US20260007767A1 (ACADEMIA SINICA, published 2026)
These are yes or no findings as the source states them, for the method shown. In cells and extracts the contact can be indirect. A result given as binding can be weak or reduced; the word gives no strength.

Chains of the proteins cited; added tags and fusions are not shown. Lines headed by an entry give the natural chain unless they say otherwise; changes in a name come on top. Residues count along the entry.
UniProt P49771: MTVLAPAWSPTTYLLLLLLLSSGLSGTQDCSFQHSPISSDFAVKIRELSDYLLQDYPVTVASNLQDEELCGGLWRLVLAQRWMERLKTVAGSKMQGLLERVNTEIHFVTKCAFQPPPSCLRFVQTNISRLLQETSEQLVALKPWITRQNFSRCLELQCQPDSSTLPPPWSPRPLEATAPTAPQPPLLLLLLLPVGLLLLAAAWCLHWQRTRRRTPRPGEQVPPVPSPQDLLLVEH
UniProt Q8IWY4, residues 24-988: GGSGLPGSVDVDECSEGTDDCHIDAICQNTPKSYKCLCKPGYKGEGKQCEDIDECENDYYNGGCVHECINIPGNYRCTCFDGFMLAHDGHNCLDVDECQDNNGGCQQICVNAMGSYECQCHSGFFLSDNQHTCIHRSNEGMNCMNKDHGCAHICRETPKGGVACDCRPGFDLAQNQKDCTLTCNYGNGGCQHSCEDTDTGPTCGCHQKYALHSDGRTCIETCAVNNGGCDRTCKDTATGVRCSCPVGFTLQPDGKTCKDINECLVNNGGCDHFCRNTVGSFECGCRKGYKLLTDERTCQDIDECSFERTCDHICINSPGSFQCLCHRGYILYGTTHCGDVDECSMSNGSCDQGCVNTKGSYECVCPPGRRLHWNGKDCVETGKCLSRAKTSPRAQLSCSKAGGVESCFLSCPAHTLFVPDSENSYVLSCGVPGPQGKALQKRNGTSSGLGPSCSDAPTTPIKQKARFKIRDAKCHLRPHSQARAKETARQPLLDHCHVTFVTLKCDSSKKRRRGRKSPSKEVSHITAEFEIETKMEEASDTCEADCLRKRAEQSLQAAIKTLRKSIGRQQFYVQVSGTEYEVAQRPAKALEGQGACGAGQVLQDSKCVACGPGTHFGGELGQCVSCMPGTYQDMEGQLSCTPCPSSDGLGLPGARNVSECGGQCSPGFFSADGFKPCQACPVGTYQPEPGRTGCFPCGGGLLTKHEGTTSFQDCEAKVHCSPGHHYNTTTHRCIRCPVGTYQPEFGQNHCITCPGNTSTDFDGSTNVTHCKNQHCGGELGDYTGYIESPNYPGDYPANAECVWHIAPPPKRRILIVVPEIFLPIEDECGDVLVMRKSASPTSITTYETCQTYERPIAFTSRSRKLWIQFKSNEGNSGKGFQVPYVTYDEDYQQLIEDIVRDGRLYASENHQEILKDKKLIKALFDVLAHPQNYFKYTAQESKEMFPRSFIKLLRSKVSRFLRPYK

Biological target: His-tagged FLT3L (UniProt P49771)
Assay: co-immunoprecipitation with anti-FLAG antibody, HEK-293T cells

binding: binds
Substance: FLAG-tagged SCUBE1 (from UniProt Q8IWY4 24-988)
